The entries are a selection whose mix differs from that of the whole data set. At the low end of the ranking, values are background and their order means little.

The source of these data is article PMC7862700.

Holding throughout (test): DAPPL (digital affinity profiling via proximity ligation, sequencing)
Settings in all cases: 10 mM Tris-HCl pH 7.5, 50 mM NaCl, 1 mM DTT, 4% glycerol, room temperature, 30 min; GST-TFs on glutathione beads, 16-mer random dsDNA library, 0.1% …; high values mean tight binding; double strand, one strand shown; scale: fold enrichment (6-mer frequency, TF over GST control)

The target of one experiment is T1, ELK3 (UniProt P41970).
T1 sequence: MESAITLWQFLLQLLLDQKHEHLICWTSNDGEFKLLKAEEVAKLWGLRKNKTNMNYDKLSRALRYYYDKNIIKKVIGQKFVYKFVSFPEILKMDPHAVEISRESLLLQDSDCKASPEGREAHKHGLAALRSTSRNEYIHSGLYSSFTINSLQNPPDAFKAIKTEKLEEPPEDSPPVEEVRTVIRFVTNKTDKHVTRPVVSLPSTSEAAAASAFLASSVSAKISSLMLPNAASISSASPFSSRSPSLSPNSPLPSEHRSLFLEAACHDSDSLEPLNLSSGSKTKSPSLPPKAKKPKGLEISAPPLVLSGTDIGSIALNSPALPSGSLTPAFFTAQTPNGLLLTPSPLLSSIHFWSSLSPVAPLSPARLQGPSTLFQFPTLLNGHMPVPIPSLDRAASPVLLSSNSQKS

For a further experiment, the target named is T2, SPIC (UniProt Q8N5J4).
T2 sequence: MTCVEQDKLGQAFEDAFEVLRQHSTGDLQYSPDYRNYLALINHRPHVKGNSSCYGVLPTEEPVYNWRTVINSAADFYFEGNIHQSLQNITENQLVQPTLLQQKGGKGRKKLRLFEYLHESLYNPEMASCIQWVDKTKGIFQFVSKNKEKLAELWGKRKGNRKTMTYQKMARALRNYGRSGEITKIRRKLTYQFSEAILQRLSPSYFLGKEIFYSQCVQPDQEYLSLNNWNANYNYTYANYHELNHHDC

The target of a further experiment is T3, ETV3 (UniProt P41162-2).
T3 sequence: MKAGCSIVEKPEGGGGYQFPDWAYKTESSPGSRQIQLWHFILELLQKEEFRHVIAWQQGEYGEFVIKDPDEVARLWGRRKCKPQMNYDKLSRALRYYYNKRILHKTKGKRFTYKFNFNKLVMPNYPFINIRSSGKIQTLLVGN

With AATGGA, the binding signal with ELK3 was determined as 0.978; in the experiment with SPIC, 0.976; with ETV3 it was 0.974.
With CAATAG, the figures for the binding signal with ELK3 and with SPIC were 1.13 and 1.07, respectively.
On to TCAAAA, for which the binding signal with ELK3 came to 1.17; in the experiment with SPIC, 1.24; in the experiment with ETV3, 1.15.
With ACACTG, the binding signal with ELK3 stood at 1.04; with SPIC it was 1.3; with ETV3, 1.01.
Take ACACCC: the binding signal in the experiment with ELK3 is 1.08; with SPIC, 1.19.
For TTGGTC, the binding signal with ELK3 worked out at 1.11; in the experiment with SPIC, 1.12; with ETV3 it was 1.05.
Turning to TTTCCG, the values for the binding signal with ELK3 and with SPIC were 4.01 and 3.86, respectively.
The corresponding values for ACACGG are 0.926 and 1.06.
The corresponding values for CCAAAT are 0.995 and 0.865.
With TCACCT, the binding signal with ELK3 was 1.22; in the experiment with SPIC, 1.31.
With TCTAAC, the figures for the binding signal with ELK3 and in the experiment with SPIC were 1.16 and 1.07, respectively.
In the case of AATTTG, the binding signal with ELK3 was 1.12; with SPIC, 1.41.
Consider CCGCAG, for which the figures for the binding signal in the experiment with ELK3, with SPIC and with ETV3 were 1.14, 0.984 and 1.07, respectively.
With TTCTGA, the values for the binding signal with ELK3 and with SPIC were 1.38 and 1.03, respectively.
For GGGTTC, the binding signal was determined as 0.97 with ELK3, 1.02 with SPIC and 1.1 with ETV3.
For TAAGAA, in that order: 1.15, 1.21 and 1.07.
As for CAGATT, the binding signal worked out at 1.12 with ELK3 and 0.845 in the experiment with SPIC.
For TCAGCT, the binding signal with ELK3 stood at 0.959; with SPIC, 0.88; in the experiment with ETV3, 1.05.
As for TGTTCC, the binding signal was 1.5 with ELK3 and 2 in the experiment with SPIC.
The corresponding values for GGATCT are 0.964 and 1.01.
For the sequence ATAGCG, the binding signal with ELK3 was found to be 1.05; with SPIC, 1.03; in the experiment with ETV3, 0.976.
With CGATGC, the binding signal with ELK3 worked out at 0.934; in the experiment with SPIC it was 0.985.
On to TTAAGG, for which the results for the binding signal with ELK3, with SPIC and with ETV3 were 1.06, 1.23 and 1.16, respectively.
For the sequence GTATCT, the binding signal is 1.09 in the experiment with ELK3 and 1.15 with SPIC.
CCCCAG: the figures for the binding signal with ELK3, in the experiment with SPIC and with ETV3 were 0.936, 1.14 and 1.07, respectively.
Turning to TCATGT, the binding signal in the experiment with ELK3 is 0.995; in the experiment with SPIC, 0.805.
Turning to CTCAAG, the binding signal with ELK3 was found to be 1.32; with SPIC, 1.1.
For ATGCCA, in that order: 0.989 and 0.863.
As to TAACGC, the binding signal with ELK3 was determined as 1.23; in the experiment with SPIC, 1.05.
The corresponding values for GATAAT are 1.12 and 1.27.
As to TCGATG, the binding signal was 0.956 with ELK3 and 0.995 with SPIC.
On to TTCTGT, for which the binding signal with ELK3 is 1.33; in the experiment with SPIC it was 1.41.
The corresponding values for GAAACA are 1.38 and 1.38.
Regarding CCCCCT, the binding signal is 1.32 with ELK3 and 1.31 in the experiment with SPIC.
For TGGTGC, in that order: 0.995 and 1.14.
Take GGTCTA: the binding signal was found to be 1.24 in the experiment with ELK3 and 1.09 in the experiment with SPIC.
The corresponding values for GGTAAT are 0.998 and 0.951.
The corresponding values for AGGACC are 1.15 and 0.843.
For AAAAAC, in that order: 1.31 and 1.27.
For the sequence AACCGC, the binding signal worked out at 1.07 in the experiment with ELK3 and 0.993 with SPIC.
As to GAAGTA, the results for the binding signal with ELK3 and with SPIC were 2.1 and 2.19, respectively.
Turning to TAACTG, the binding signal with ELK3 was 1.26; in the experiment with SPIC, 1.42.
In the case of GCCGGA, the figures for the binding signal in the experiment with ELK3 and in the experiment with SPIC were 1.11 and 0.879, respectively.
Regarding TCACCG, the binding signal in the experiment with ELK3 was 1.13; with SPIC, 0.918.
The corresponding values for TGCCTC are 1.27 and 1.4.
For CGCGAT, in that order: 1.07 and 0.896.
Regarding TATCTT, the binding signal with ELK3 stood at 1.24; in the experiment with SPIC, 1.27.
With ATAACG, the binding signal in the experiment with ELK3 came to 0.957; with SPIC it was 0.923.
Take ATTAGG: the values for the binding signal with ELK3 and in the experiment with SPIC were 1.1 and 0.984, respectively.
For GGCTAC, the binding signal in the experiment with ELK3 is 1.19; in the experiment with SPIC, 0.933.
With CCCGTC, the binding signal with ELK3 was 0.935; with SPIC it was 0.958.
For TGACTA, in that order: 1.14 and 0.936.
The corresponding values for CTTTGT are 1.29 and 1.21.
Turning to ATTAAG, the binding signal with ELK3 is 0.993; in the experiment with SPIC, 1.04.
In the case of CCTCAA, the results for the binding signal in the experiment with ELK3 and with SPIC were 1.44 and 1.46, respectively.
For CCGCTG, in that order: 0.951 and 1.08.
The corresponding values for GCTATC are 1.12 and 0.957.
For TCAGAT, in that order: 0.935 and 0.932.
In the case of TTTGGG, the binding signal with ELK3 came out at 1.29; with SPIC, 1.16.
TTCACA: the binding signal in the experiment with ELK3 came to 1.26; in the experiment with SPIC, 1.08.
For ACACCG, in that order: 0.949 and 0.899.
